Experimental data taken from paper PMC4995489, “Staphylokinase has distinct modes of interaction with antimicrobial peptides, modulating its plasminogen-activation properties” (Scientific Reports, 2016).
No constants are given. Whether binding was seen depends on the method and setting. Some binding calls cover weakened binding; strength is not graded here.

Legend:
[1] = target: Staphylokinase (full-length Sak, sakSTAR sequence) (Staphylococcus aureus) (UniProt P68802); assay: NMR titration; 1H,15N HSQC of 15N-labelled Sak or SakΔN10, peptide added in steps of 0.5 molar equivalents; 298 K; 20 mM sodium phosphate, 100 mM NaCl, 1 mM EDTA, pH 6.9; both purified
[2] = target: SakΔN10 (staphylokinase with its first ten residues deleted) (Staphylococcus aureus) (UniProt P68802); assay: as above
[3] = target: SakΔN10 (staphylokinase with its first ten residues deleted) (Staphylococcus aureus) (UniProt P68802); assay: ITC; 200-400 μM peptide titrated into 8 μM Sak or SakΔN10 in the cell; 25 °C; 20 mM HEPES, pH 7.4, no salt; One Set of Sites model; at least two experiments each; both purified

With FKCRRWQWRMKKLGAPSITCVRRAF (disulfide bond between the two Cys residues (Cys3 and Cys20 of the peptide)) [Bovine lactoferricin] the binding [1] was “binds” and the binding [2] was “binds”.

In the case of VRRFPWWWPFLRR (C-terminal amide) [Tritrp (C-terminally amidated tritrpticin)], the binding [1] is reported as “binds” and the binding [2] is reported as “binds”.

B1: Mouse cathelicidin-related antimicrobial peptide (peptide)
peptide: GLLRKGGEKIGEKLKKIGQKIKNFFQKLVPQPEQ
notes: Cathelicidin-related antimicrobial peptide (CRAMP), the C-terminal peptide of the mouse cathelicidin precursor; also called mCRAMP
With B1 the binding [3] was “binds weakly” and the binding [2] was “binds weakly”.
